Data taken from the supplement of paper PMC11348887.
Counter-ions that a name gives are not always drawn. Some of the results follow. Most values lie at the level of the controls, where differences are scatter.

System: hPSC-derived cortical neurons (WA09)
Assay: KCl-induced FOS+/EGR-1+ double-positive nuclei fraction z-score (KCl minus unstimulated); higher = stronger activity-induced IEG response
Conditions: 5 µM; treatment: days 7-14 after plating, readout day 21

SMILES	KCl-induced FOS+/EGR-1+ double-positive nuclei fraction z-score
C[C@@H]1C[C@H]2[C@@H]3CCC4=CC(=O)C=C[C@]4(C)[C@@]3(Cl)[C@@H](O)C[C@]2(C)[C@@]1(OC(=O)c1ccco1)C(=O)CCl [Mometasone furoate]	-0.944
CCO[C@@H]1OC(=O)C[C@@H]1NC(=O)[C@@H]1CCCN1C(=O)[C@@H](NC(=O)c1ccc(N)c(Cl)c1)C(C)(C)C	-0.726
Nc1nc2c(ncn2COC(CO)CO)c(=O)[nH]1 [Ganciclovir]	-1.12
CC(C)C(=O)OCC(=O)[C@@]12O[C@H](C3CCCCC3)O[C@@H]1C[C@H]1[C@@H]3CCC4=CC(=O)C=C[C@]4(C)[C@H]3[C@@H](O)C[C@@]12C [Ciclesonide]	0.162
Cc1[nH]c(/C=C2\C(=O)Nc3ccc(S(=O)(=O)N(C)c4cccc(Cl)c4)cc32)c(C)c1C(=O)N1CCN(C)CC1	1.67
Cc1[nH]c2ccccc2c1CCNCc1ccc(/C=C/C(=O)NO)cc1 [Panobinostat (LBH589)]	-0.627
CC(C)[C@H](C(=O)Nc1ccc(C(=O)NO)cc1)c1ccccc1	-1.58
COc1ccc(-c2coc3cc(O)ccc3c2=O)cc1 [Formononetin]	0.0587
O=C(NOCCO)c1ccc2cncn2c1Nc1ccc(I)cc1F	-0.334
NC1(Cc2ccc(Cl)cc2)CCN(c2ncnc3[nH]ccc23)CC1	-2.08
O=C(O)c1cc(C(F)(F)F)ccc1N1CC[C@H](OCc2ccccn2)C1	1.87
O=C1Nc2ccccc2/C1=C1/Nc2ccccc2C1=O [Indirubin]	0.33
CN(C)c1ccc2nc3ccc(=[N+](C)C)cc-3sc2c1 [Methylene Blue]	1.03
Cc1nc(Nc2ncc(C(=O)Nc3c(C)cccc3Cl)s2)cc(N2CCN(CCO)CC2)n1 [Dasatinib]	-0.175
O=C(c1ccc(/C=C/c2n[nH]c3ccccc23)cc1)N1CCNCC1	0.473
COc1cc(C=O)ccc1O [Vanillin]	0.03
CCn1cc(C(=O)O)c(=O)c2cc(F)c(N3CCNC(C)C3)c(F)c21 (configuration not stated) [Lomefloxacin HCl]	0.576
Nc1ccc(S(=O)(=O)Nc2ncccn2)cc1 [Sodium sulfadiazine]	-0.0736
CCCN[C@H]1CCc2nc(N)sc2C1 [Pramipexole 2HCl Monohydrate]	0.658
N=C(N)NC(=N)NCCc1ccccc1 [Phenformin HCl]	0.463
CC1(C)O[C@@H]2C[C@H]3[C@@H]4C[C@H](F)C5=CC(=O)C=C[C@]5(C)[C@@]4(F)[C@@H](O)C[C@]3(C)[C@]2(C(=O)CO)O1 [Fluocinolone Acetonide]	0.775
Cc1ccc(S(=O)(=O)n2c(N)nc3ccccc32)cc1 [ML130 (Nodinitib-1)]	1.29
Oc1ccc([C@H]2COc3cc(O)ccc3C2)cc1 [Equol]	0.488
CO[C@@H]1[C@@H](OC(N)=O)[C@@H](O)[C@H](Oc2ccc3c(O)c(NC(=O)c4ccc(O)c(CC=C(C)C)c4)c(=O)oc3c2C)OC1(C)C [Novobiocin Sodium]	0.852
Cc1c(O)cccc1C(=O)N[C@@H](CSc1ccccc1)[C@H](O)CN1C[C@H]2CCCC[C@H]2C[C@H]1C(=O)NC(C)(C)C [Nelfinavir Mesylate]	-0.498
COc1cc(C(=O)NS(=O)(=O)c2ccccc2C)ccc1Cc1cn(C)c2ccc(NC(=O)OC3CCCC3)cc12 [Zafirlukast]	1.8
C[C@@H](O)[C@H]1C(=O)N2C(C(=O)O)=C(S[C@@H]3CN[C@H](CNS(N)(=O)=O)C3)[C@H](C)[C@H]12 [Doripenem Hydrate]	0.4

Single entries from the entries so far.
CCCN[C@H]1CCc2nc(N)sc2C1 [Pramipexole 2HCl Monohydrate] – KCl-induced FOS+/EGR-1+ double-positive nuclei fraction z-score: 0.658
Cc1ccc(S(=O)(=O)n2c(N)nc3ccccc32)cc1 [ML130 (Nodinitib-1)] – KCl-induced FOS+/EGR-1+ double-positive nuclei fraction z-score: 1.29
